No constants are given. Whether binding was seen depends on the method and setting. In cells and extracts the contact can be indirect. Where a sequence is shown, tags or fusion partners need not be part of it.
Target: FLAG-tagged B9 domain-lacking MKS1 (human) (UniProt Q9NXB0)
Test: co-IP; transfected HEK293T cells; lysis in 20 mM Tris-HCl pH 7.5, 150 mM NaCl, 0.5 mM EDTA, 0.5% Triton X-100; FLAG-MKS1 variants captured on FLAG M2 beads 2 h at 4°C, eluted with 3xFLAG peptide; blot with anti-FLAG and anti-HA

Protein sequences, listed by entry. Tags and fused reporters are not part of them. Lines headed by an entry give the natural chain unless they say otherwise; changes in a name come on top.
UniProt Q9NXB0: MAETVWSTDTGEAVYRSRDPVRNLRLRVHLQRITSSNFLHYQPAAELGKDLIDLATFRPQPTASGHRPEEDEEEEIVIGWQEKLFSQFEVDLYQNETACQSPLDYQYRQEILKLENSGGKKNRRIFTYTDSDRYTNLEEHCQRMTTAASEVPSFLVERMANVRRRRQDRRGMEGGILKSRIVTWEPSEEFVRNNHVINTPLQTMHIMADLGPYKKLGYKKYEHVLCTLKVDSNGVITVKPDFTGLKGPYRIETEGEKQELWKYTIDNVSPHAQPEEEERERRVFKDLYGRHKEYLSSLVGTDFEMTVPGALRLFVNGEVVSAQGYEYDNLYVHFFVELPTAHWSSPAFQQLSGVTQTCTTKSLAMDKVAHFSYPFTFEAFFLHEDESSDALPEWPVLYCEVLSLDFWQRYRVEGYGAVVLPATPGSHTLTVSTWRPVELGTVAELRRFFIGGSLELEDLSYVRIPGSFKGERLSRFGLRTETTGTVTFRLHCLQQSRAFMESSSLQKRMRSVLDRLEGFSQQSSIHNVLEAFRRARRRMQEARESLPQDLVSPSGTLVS

binding: no binding
B1: HA-tagged B9D2 (protein, UniProt Q9BPU9 1-175)
chain: MAEVHVIGQIIGASGFSESSLFCKWGIHTGAAWKLLSGVREGQTQVDTPQIGDMAYWSHPIDLHFATKGLQGWPRLHFQVWSQDSFGRCQLAGYGFCHVPSSPGTHQLACPTWRPLGSWREQLARAFVGGGPQLLHGDTIYSGADRYRLHTAAGGTVHLEIGLLLRNFDRYGVEC
